Measurements reported in PubChem BioAssay AID686943 (Drosophila RNAi Screening Center, 2013)

- Test: 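Fly genes whose loss alters ERK activation after insulin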 (primary screen)
- Cell system: Drosophila S2R+ haemocyte-like cells expressing YFP-tagged ERK (Rolled)
- Reagents: long dsRNA against Drosophila genes
- Treatment: insulin stimulation versus unstimulated cells; dose and duration not given
- Read-out: 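Per-plate z-scores of phospho-ERK immunostaining normalised to YFP-tagged ERK, measured with and without insulin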
- Scale: replicate 1, z-score of dpERK with insulin and replicate 2, z-score of dpERK with insulin: higher = more active ERK per ERK-YFP after insulin
In all, the deposit lists about 23,000 reagents; this is a random part of those that have a named target and a result. 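Extra replicates exist only for a retested subset of genes; insulin dose and duration not given; both raised and lowered dpERK matter.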 The numbers tell different reagents against one gene apart. Further read-outs or replicates are left out here. Reagent sequences are not shown. Not given: the amount of reagent, the time to read-out.

What did the screen give for CG3592?
replicate 1, z-score of dpERK with insulin: 0.43; replicate 2, z-score of dpERK with insulin: 0.13

What is on record for CG14227?
replicate 1, z-score of dpERK with insulin: 1.06; replicate 2, z-score of dpERK with insulin: 0.66

What did the screen give for CG4041?
replicate 1, z-score of dpERK with insulin: 0.67; replicate 2, z-score of dpERK with insulin: 0.68

Which result is listed for Sox100B #1?
replicate 1, z-score of dpERK with insulin: -0.14; replicate 2, z-score of dpERK with insulin: -1.37

What is on record for Sox100B #2?
replicate 1, z-score of dpERK with insulin: -0.48; replicate 2, z-score of dpERK with insulin: 0.04

With CG8160 #1, what does the deposit list?
replicate 1, z-score of dpERK with insulin: 0.2; replicate 2, z-score of dpERK with insulin: 0.5

For CG8160 #2, what does the deposit list?
replicate 1, z-score of dpERK with insulin: 0.18; replicate 2, z-score of dpERK with insulin: -0.03

Already shown: entries from further up.
Sox100B #2: replicate 1, z-score of dpERK with insulin = -0.48; replicate 2, z-score of dpERK with insulin = 0.04
CG8160 #1: replicate 1, z-score of dpERK with insulin = 0.2; replicate 2, z-score of dpERK with insulin = 0.5

More entries:
For Nil, how do the results read?
replicate 1, z-score of dpERK with insulin: 0.6; replicate 2, z-score of dpERK with insulin: 0.1

How did the screen score CG4269?
replicate 1, z-score of dpERK with insulin: 0.03; replicate 2, z-score of dpERK with insulin: 0.45

What is on record for Nca?
replicate 1, z-score of dpERK with insulin: 0.8; replicate 2, z-score of dpERK with insulin: 0.51

Which result is listed for Loxl1?
replicate 1, z-score of dpERK with insulin: -0.4; replicate 2, z-score of dpERK with insulin: -0.12

What is on record for tsl?
replicate 1, z-score of dpERK with insulin: -0.11; replicate 2, z-score of dpERK with insulin: -0.06
